Results are given in words; binding and its absence hold for the method and conditions named. Binding seen in cells or lysates may run through a third protein. Some entries that bind do so weakly or less than the wild type.
Tests used:
[1] = molecular target: H. sapiens GPB5-His (H. sapiens) (UniProt Q86YW7); assay: cross-linking; 0.68 mM DSS for 30 min at RT on concentrated conditioned media with human GPA2-FLAG and GPB5-His, kept separate or combined after separate production; reducing SDS-PAGE, anti-His and anti-FLAG blots
[2] = molecular target: H. sapiens GPA2-FLAG (H. sapiens) (UniProt Q96T91); assay: as above

Chains of the proteins cited; added tags and fusions are not shown. Residues count along the entry.
UniProt Q86YW7, residues 25-130: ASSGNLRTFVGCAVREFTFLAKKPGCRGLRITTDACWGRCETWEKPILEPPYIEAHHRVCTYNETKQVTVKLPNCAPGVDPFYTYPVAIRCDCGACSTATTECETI
UniProt Q96T91, residues 24-129: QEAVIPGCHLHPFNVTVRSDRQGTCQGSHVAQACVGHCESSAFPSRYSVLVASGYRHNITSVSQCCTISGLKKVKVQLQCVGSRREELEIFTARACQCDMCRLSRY

Substance	binding [1]	binding [2]
H. sapiens GPB5-His (from UniProt Q86YW7 25-130)	binds	
H. sapiens GPA2-FLAG (from UniProt Q96T91 24-129)	binds	binds
